Results are given in words; binding and its absence hold for the method and conditions named. Some results given as binding are weak or reduced against the parent protein; the word gives no strength.

Assay [1] addresses Apocrypta bakeri odorant receptor co-receptor Orco (Apocrypta bakeri) (UniProt B0FAQ4). Briefly: cryo-EM structure; AgOR28 co-expressed with A. bakeri Orco, purified complex; unbound and 2,4,5-trimethylthiazole (TMT)-bound states.
For assay [2] the target is unchanged. Briefly: cryo-EM structure; AaOR10/Orco heteromers co-expressed in HEK293 cells (1:1 OR to Orco virus), purified by an affinity tag on the OR subunit, in detergent micelle; unbound and o-cresol-bound states.

B1: Apocrypta bakeri odorant receptor co-receptor Orco (receptor, UniProt B0FAQ4 1-474)
chain: MKFKHQGLVADLLPNIRVMQGVGHFMFNYYSEGKKFPHRIYCIVTLLLLLLQYGMMAVNLMMESDDVDDLTANTITMLFFLHPIVKMIYFPVRSKIFYKTLAIWNNPNSHPLFAESNARFHALAITKMRRLLFCVAGATIFSVISWTGITFIEDSVKRITDPETNETTIIPIPRLMIRTFYPFNAMSGAGHVFALIYQFYYLVISMAVSNSLDVLFCSWLLFACEQLQHLKAIMKPLMELSATLDTVVPNSGELFKAGSADHLRESQGVQPSGNGDNVLDVDLRGIYSNRQDFTATFRPTAGTTFNGGVGPNGLTKKQEMLVRSAIKYWVERHKHVVRLVTAVGDAYGVALLLHMLTTTITLTLLAYQATKVNGVNVYAATVIGYLLYTLGQVFLFCIFGNRLIEESSSVMEAAYSCHWYDGSEEAKTFVQIVCQQCQKAMSISGAKFFTVSLDLFASVLGAVVTYFMVLVQLK
B1: the binding entry in assay [1] and in assay [2] was “binds” each time.

These data come from paper PMC11235583, “Structural basis of odor sensing by insect heteromeric odorant receptors” (Science (New York, N.Y.), 2024).
